# According to PMC4997581:
# Chains of the proteins cited; added tags and fusions are not shown.
# UniProt O60563: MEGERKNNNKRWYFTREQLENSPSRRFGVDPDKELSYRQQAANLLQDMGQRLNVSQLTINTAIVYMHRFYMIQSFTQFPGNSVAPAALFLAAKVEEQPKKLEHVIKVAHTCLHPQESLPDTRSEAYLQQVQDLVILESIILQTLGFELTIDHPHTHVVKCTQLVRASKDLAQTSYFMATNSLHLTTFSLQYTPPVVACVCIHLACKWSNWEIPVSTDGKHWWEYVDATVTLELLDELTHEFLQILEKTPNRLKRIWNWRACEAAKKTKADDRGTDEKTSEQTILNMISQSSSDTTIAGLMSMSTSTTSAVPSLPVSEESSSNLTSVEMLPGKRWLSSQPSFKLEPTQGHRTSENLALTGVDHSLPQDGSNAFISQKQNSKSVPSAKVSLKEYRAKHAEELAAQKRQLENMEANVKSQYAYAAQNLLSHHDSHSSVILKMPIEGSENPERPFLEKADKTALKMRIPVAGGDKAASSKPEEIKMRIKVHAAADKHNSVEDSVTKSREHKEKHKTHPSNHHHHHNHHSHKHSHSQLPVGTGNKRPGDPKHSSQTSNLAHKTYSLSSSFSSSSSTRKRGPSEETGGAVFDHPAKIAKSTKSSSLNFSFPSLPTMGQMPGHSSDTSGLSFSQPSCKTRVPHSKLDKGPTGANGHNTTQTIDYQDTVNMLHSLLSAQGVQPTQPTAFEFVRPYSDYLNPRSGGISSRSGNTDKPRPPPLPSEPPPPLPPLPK
# UniProt P16788: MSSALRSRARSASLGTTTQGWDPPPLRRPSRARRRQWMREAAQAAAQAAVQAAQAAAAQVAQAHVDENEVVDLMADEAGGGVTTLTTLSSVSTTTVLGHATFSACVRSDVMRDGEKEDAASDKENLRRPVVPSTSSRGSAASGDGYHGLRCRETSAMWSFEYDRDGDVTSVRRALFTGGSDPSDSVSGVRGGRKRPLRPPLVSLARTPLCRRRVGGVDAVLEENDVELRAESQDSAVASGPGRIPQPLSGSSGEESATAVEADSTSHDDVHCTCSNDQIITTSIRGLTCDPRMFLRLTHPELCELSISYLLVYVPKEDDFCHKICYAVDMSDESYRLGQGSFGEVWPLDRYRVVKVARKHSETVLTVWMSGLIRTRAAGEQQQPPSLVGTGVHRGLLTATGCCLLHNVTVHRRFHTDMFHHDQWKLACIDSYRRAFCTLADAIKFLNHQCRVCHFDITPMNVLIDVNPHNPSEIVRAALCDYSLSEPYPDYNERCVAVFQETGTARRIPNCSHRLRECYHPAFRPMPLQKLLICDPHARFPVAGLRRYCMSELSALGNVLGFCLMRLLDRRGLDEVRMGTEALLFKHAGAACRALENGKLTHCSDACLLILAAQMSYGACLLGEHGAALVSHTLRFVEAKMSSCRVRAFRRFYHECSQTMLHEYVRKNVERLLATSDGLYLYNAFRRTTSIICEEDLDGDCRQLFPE
# UniProt O60583: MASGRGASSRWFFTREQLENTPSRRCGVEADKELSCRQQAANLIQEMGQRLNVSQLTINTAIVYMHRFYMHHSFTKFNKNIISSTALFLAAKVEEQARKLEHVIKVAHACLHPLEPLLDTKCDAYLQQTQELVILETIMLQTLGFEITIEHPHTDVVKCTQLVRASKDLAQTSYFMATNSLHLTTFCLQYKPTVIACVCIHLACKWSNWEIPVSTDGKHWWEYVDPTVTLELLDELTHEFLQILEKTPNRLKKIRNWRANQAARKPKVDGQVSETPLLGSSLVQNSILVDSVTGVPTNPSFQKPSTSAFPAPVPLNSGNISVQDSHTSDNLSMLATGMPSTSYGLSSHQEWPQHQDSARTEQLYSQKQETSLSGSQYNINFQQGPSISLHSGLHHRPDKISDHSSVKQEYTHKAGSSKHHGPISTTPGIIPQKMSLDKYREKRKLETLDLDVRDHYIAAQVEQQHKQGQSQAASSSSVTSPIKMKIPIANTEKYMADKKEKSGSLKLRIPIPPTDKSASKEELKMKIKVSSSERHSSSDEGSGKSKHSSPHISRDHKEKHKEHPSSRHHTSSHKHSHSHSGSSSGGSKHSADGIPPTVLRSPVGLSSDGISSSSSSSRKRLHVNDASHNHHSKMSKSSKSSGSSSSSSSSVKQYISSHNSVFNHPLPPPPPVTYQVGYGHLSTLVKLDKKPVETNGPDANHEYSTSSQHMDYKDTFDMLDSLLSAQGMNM
# UniProt P38936: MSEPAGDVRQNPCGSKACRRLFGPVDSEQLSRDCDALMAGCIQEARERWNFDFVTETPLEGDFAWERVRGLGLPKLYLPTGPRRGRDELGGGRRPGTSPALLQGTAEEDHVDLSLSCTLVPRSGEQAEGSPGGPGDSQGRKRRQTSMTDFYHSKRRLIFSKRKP
# UniProt P46527: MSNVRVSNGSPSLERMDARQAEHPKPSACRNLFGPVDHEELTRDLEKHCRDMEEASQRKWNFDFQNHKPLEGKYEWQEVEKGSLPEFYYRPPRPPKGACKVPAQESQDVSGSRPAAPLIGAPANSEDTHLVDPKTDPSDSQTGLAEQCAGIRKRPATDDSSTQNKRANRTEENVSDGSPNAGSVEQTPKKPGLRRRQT
# UniProt P50750: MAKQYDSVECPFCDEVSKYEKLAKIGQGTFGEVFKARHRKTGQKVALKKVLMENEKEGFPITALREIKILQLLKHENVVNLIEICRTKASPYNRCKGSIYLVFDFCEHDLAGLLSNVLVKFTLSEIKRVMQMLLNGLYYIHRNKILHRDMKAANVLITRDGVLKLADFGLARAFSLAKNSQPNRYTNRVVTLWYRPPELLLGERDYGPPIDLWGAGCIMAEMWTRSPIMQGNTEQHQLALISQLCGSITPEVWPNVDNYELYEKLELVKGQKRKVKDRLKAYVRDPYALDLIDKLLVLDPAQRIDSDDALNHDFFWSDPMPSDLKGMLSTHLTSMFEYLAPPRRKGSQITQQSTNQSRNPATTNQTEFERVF
# What was measured:
# [1] = molecular target: Cyclin B1 (human (endogenous in 293T and HFF)) (UniProt P14635); assay: affinity purification with mass spectrom
# [2] = molecular target: Cyclin T1 (human (endogenous in 293T and HFF)) (UniProt O60563); assay: affinity purification with mass spectrom
# [3] = molecular target: HCMV protein kinase pUL97, Flag-tagged (pUL97-Flag) (human cytomegalovirus) (UniProt P16788); assay: affinity purification with mass spectrometry
Substance,binding [1],binding [2],binding [3]
Cyclin T2 (from UniProt O60583 1-730),,binds,no binding
Cyclin-dependent like kinase 5 (from UniProt Q00535 1-292),binds,,

# Now from value to substance, other results behind:
binding [1],Substance,binding [2],binding [3]
binds,CDK inhibitor 1A (Cip1) (from UniProt P38936 1-164),,
binds,CDK inhibitor 1B (from UniProt P46527 1-198),,
binds,Cyclin-dependent kinase 9 (from UniProt P50750 1-372),,

# No constants are given. Whether binding was seen depends on the method and setting. Binding seen in cells or lysates may run through a third protein. Here binding means that the protein was enriched with, or labelled near, the bait; the list need not be complete. For part of these data: No binding means not detected with the bait.
